Measurements published in PubChem BioAssay AID493014 (National Center for Advancing Translational Sciences (NCATS), 2011).
Among all 340,000 compounds or so, about 170 (0.05%) were called active. This list was built around the results that the source calls inconclusive (neither active nor inactive); the mix of calls is not that of the screen. Calls come from the whole dose curve; as a rule, active = well fitted inhibition curve with a large enough effect in the signal ratio, with a control signal flat (not every such curve was filed as active); inconclusive = small, poorly fitted or top-dose-only effect, or effect the other way, or a change in a side signal; inactive = flat fitted curve, though single readings scatter; the % refers to the signal ratio. Potencies of inconclusive entries are doubtful fits and often do not repeat.

Assay: qHTS Assay to Find Inhibitors of Chronic Active B-Cell Receptor Signaling;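 for activity change, negative = inhibition: plate controls were basal doxycycline-induced cells for no effect and cells given 10 µM MG132 for full effect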
Conditions: ABC-DLBCL IkBa-CBG/CBR reporter, luminescence ratio (green luciferase fused to IkBa over red control in TMD8 lymphoma cells), 4 h; activity change, negative = inhibition: at 46.1 µM (top of the series)
Outline: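 Compounds up to 46 uM were incubated four hours with TMD8 cells whose green CBG68 luciferase is fused to IkappaBalpha; red CBR luminescence normalised the signal, and concentration-effect curves were fitted to fusion, red and ratio data.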
Potency is the fitted concentration of half-maximal effect.

Row | SMILES | activity change, negative = inhibition | Potency
1 | Cc1nn(Cc2ccccc2)c(Cl)c1C(=O)Nc1ccc(OC(F)(F)F)cc1 | inconclusive: 11.7% | 
2 | COC(=O)C1=C(c2ccc(-c3ccccc3)c(F)c2)C[C@@H]2CC[C@H]1N2C(=O)NCCCOC(C)C | inconclusive: 0.574% | 
3 | Cc1nccc(-c2cc(-c3ccc(Cl)cc3Cl)no2)n1 | inconclusive: 9.64% | 
4 | COC(=O)C1=C(c2ccc(F)cc2OCc2ccccc2)C[C@@H]2CC[C@H]1N2C(=O)N1CCOCC1 | inactive: -8.39% | 
5 | CSCCC(N=Cc1c(O)n(-c2ccc(Br)cc2)c(=O)[nH]c1=O)C(=O)OC(C)(C)C (stereo not given) | inconclusive: 0.543% | 
6 | Cc1ccc(Cn2cccc(C(=O)Nc3nc4ccc(C)cc4s3)c2=O)cc1 |  | inconclusive: 11.2 µM [falling, partial curve]
7 | COc1ccccc1N1CCN(Cc2cnc(-c3ccccc3)[nH]2)CC1 | inconclusive: -8.07% | 
8 | COc1ccc2nc(NC3=NCCN3)sc2c1 | inactive: -5.84% | 
9 | Cc1cccc(-n2c(O)c(C)c(=O)[nH]c2=S)c1 |  | inconclusive: 20 µM [falling, partial curve, poor fit]
10 | O=C1NC(=O)C2(Cc3ccccc3N3CCCC32)C(=O)N1c1ccc(Cl)cc1 (stereo not given) | inconclusive: -10.4% | 
11 | O=C(O)CCn1cc(C=C2C(=O)NC(=S)NC2=O)c(-c2cccc(Cl)c2)n1 | inconclusive: 26.6% | 
12 | COc1ccc(-n2c(/C=C3/C(=O)Nc4ccccc43)nc3ccccc3c2=O)cc1 | inactive: -8.79% | 
13 | COc1ccc(C(=O)NC(=S)NNC(=O)c2ccccc2O)cc1 | inconclusive: -10.7% | 
14 | Clc1ccc(CCC(Cn2ccnc2)Sc2c(Cl)cccc2Cl)cc1 (stereo not given) | inconclusive: 17.8% | 
15 | CCC1Sc2ccccc2N(CC(=O)NCCC(C)C)C1=O (stereo not given) | inconclusive: -5.7% | 
16 | Nc1c(C(=O)OCc2ccccc2)c2nc3ccccc3nc2n1Cc1cccs1 |  | inconclusive: 8.2 µM [rising, partial curve]
17 | CN(C)C(=O)Oc1ccc2c(c1)O/C(=C\c1ccccc1)C2=O | inconclusive: 1.63% | 
18 | O=C1NC(=O)N(c2ccccc2)C(=O)/C1=C/C=C/c1ccco1 |  | inconclusive: 35.5 µM [falling, single point]
19 | CC(C)(C#CC(=O)O)OOC(c1ccccc1)(c1ccccc1)c1ccccc1 | inconclusive: -0.465% | 
20 | CN1C(=O)C(=Cc2ccc(OCC(=O)Nc3ccccc3)cc2)C(=O)N(C)C1=O | inconclusive: -9% | 
21 | Cc1ccccc1CCNCc1cc2cccc(C)c2[nH]c1=O | inactive: -5.79% | 
22 | C=Cn1ccnc1P(O)(=S)c1nc(C)c(CCOC(C)=O)s1 (stereo not given) | inactive: 2.46% | 
23 | Nc1c2c(nc3sc4c(c13)CCCCC4)CCCC2 |  | inconclusive: 29.1 µM [falling, single point]
24 | Cc1ccc2nc(N3CCN(C(=O)C4CC4)CC3)sc2c1 | inconclusive: 7.41% | 
25 | Cc1nc2ccccc2c(=O)n1-c1cc(F)ccc1F |  | inconclusive: 31.6 µM [falling, partial curve, poor fit]

Row | SMILES | activity change, negative = inhibition | Potency
26 | O=C1C2CCN(CC2)C1Cc1ccc(OCCOc2ccccc2)cc1 (stereo not given) | inactive: 0.171% | 
27 | COC(=O)C1=C(c2ccc(-c3ccccc3)c(F)c2)C[C@@H]2CC[C@H]1N2C(=O)NC1CC1 | inconclusive: -2.5% | 
28 | CC(=NCC1CCCO1)c1c(O)n(-c2ccc(C)cc2)c(=O)[nH]c1=O (stereo not given) |  | inconclusive: 1.64 µM [rising, partial curve, poor fit]
29 | Cc1ccc(S(=O)(=O)N2CN3CCN(C3)C2)cc1 | inactive: 3.34% | 
30 | O=c1[nH]c(CN2CC=C(c3ccccc3)CC2)nc2scc(-c3cccs3)c12 | inconclusive: -0.546% | 
31 | CC(C)(C)NC(=O)C(=O)N/N=C/c1ccc(F)cc1 |  | inconclusive: 22.4 µM [falling, partial curve, poor fit]
32 | CC(=O)c1cccc(OCC(=O)N2CCN(CC(=O)Nc3cccc(F)c3)CC2)c1 | inconclusive: -6.73% | 
33 | CCn1c(O)c(/C=N/NC(=O)c2ccncc2)c(=O)[nH]c1=S |  | inconclusive: 29.1 µM [falling, single point]
34 | CC[C@@]1(O)C(=O)OCc2c1cc1n(c2=O)Cc2cc3c(NC(=O)CN)cccc3nc2-1 |  | inconclusive: 11.2 µM [rising, partial curve]
35 | Cc1c2ccncc2c(C)c2c1[nH]c1ccccc12 |  | inconclusive: 29.1 µM [falling, single point]
36 | CCOP(=O)(OCC)/C(=N/OC(=O)c1ccc(Cl)cc1Cl)C(N)=O | inconclusive: 7.69% | 
37 | COc1ccc(C(c2c(O)c3ccccc3oc2=O)c2c(C)n(C)n(-c3ccccc3)c2=O)cc1 (stereo not given) |  | inconclusive: 9.2 µM [falling, partial curve]
38 | O=C(Cc1ccccc1)N1CCN(C2CCCC2)CC1 | inactive: -0.0227% | 
39 | CC(C)c1ccccc1OCC(=O)N1CCCN(C)CC1 | inactive: 0.611% | 
40 | CC(=O)c1cn(CC(=O)NCCc2c[nH]c3ccccc23)c2ccccc12 |  | inconclusive: 35.5 µM [falling, single point]
41 | Cc1ccc(NC(=O)CN2C(=O)CN=C(c3ccccc3)c3ccccc32)cc1Cl | inactive: 0.87% | 
42 | O=C(Nc1ccc(Cl)cc1C(=O)c1ccccc1Cl)c1ccco1 | inactive: 1.22% | 
43 | O=C(CCn1c(=O)oc2ccc(Cl)cc21)N1CCN(c2ccccc2)CC1 | inconclusive: 2.49% | 
44 | C=Cn1ccnc1P(=S)(c1nccn1C=C)c1nccn1C=C | inactive: 1.03% | 
45 | CN1CCN(C(=O)COc2ccc(S(=O)(=O)Nc3ccc(F)cc3)cc2)CC1 | inactive: 6.16% | 
46 | CCOC(=O)C(O)(c1ccc(NC(=O)c2ccc(Cl)c(Cl)c2)cc1)C(F)(F)F (stereo not given) | inactive: 6.52% | 
47 | O=C(N/N=C/c1c(O)n(C2CCCCC2)c(=S)[nH]c1=O)c1ccccc1O |  | inconclusive: 3.55 µM [falling, partial curve]
48 | CC1(C)CC(CCNCc2ccc3c(c2)OCO3)(Cc2ccccc2)CCO1 (stereo not given) |  | inconclusive: 15.8 µM [falling, partial curve, poor fit]
49 | O=C(CN1CCN(c2ccccc2F)CC1)Nc1cccnc1Cl |  | inconclusive: 11.2 µM [falling, partial curve, poor fit]
50 | CCOC(=O)C(NC(=O)CC)(Nc1ccc(C(O)(C(=O)OCC)C(F)(F)F)cc1C)C(F)(F)F (stereo not given) | inactive: 2.86% | 

Complete entries, quoted from the list:
Cc1c2ccncc2c(C)c2c1[nH]c1ccccc12 is listed as Potency: inconclusive: 29.1 µM [falling, single point]
C=Cn1ccnc1P(O)(=S)c1nc(C)c(CCOC(C)=O)s1 (stereo not given) is listed as activity change, negative = inhibition: inactive: 2.46%
